{"source": "PubChem BioAssay AID1347076", "about": "(National Center for Advancing Translational Sciences (NCATS), 2019)", "note": "Out of some 400,000 compounds screened, about 13,000 (3.2%) were called active. The shares of active, inactive and inconclusive entries below differ from those in the screen. Calls follow the shape of the dose curve; as a rule, active = well fitted cell-killing curve with a large enough effect; inconclusive = small, poorly fitted or top-dose-only effect, or effect the other way; inactive = flat fitted curve, though single readings scatter. A potency beside an inconclusive call is a rough fit, not a confirmed value. % is scaled to controls: 0 for no effect and ±100 for the full control effect; potency is read from the fitted curve at half-maximal effect."}
{"test": "qHTS assay for MDR1-selective chemotherapeutics: Primary screen using the drug-selected MDR subline cells KB-V1; also: nearly all actives have a fitted effect of over 60% in size", "conditions": "KB-V1 MDR cells viability, CellTiter-Glo, 72 h; activity change, negative = cytotoxicity: at 46.1 µM (top of the series)", "procedure,_shortened": "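Following 72 h at 37 degrees C with compound, KB-V1 cell viability was read by CellTiter-Glo luminescence, medium being phenol-red-free DMEM plus 10% FBS; concentration-response parameters came from normalized, curve-fitted qHTS data.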"}
{"smiles": "CC(C)C(=O)NC(=O)COC(=O)/C=C/c1cccs1", "activity change, negative = cytotoxicity": "inactive: 2.5%"}
{"smiles": "COc1ccc(S(=O)(=O)n2cccc2)c(OC)c1", "activity change, negative = cytotoxicity": "inactive: -3.19%"}
{"smiles": "CN1CCN(c2ccccc2NC(=O)c2ccc(OCc3ccccc3)cc2)CC1", "Potency": "inconclusive: 32.6 µM [cytotoxic, single point]"}
{"smiles": "CC(C)[C@H](NC(=O)N1c2ccccc2NC(=O)[C@@H]1C(C)C)C(=O)N[C@H](Cc1ccccc1)C(=O)O", "activity change, negative = cytotoxicity": "inactive: 25.5%"}
{"smiles": "CCCCCCCCC(=O)NC(NC(=S)N1CCOCC1)C(Cl)(Cl)Cl", "note": "(stereo not drawn)", "Potency": "inconclusive: 25.9 µM [cytotoxic, single point]"}
{"smiles": "CC(C)C[C@@H](CN)NC(=O)c1nc[nH]c1C(=O)N[C@@H](C)C(=O)CNC[C@H](C)NC(=O)c1nc[nH]c1C(=O)N[C@@H](CC(=O)O)C(=O)O", "Potency": "inconclusive: 10.3 µM [rising, partial curve]"}
{"smiles": "O/N=C/c1cn(-c2ccc(Cl)cc2)nn1", "Potency": "inconclusive: 29.1 µM [cytotoxic, single point]"}
{"smiles": "COc1ccc(C2=NCCc3cc(OC)c(OC)cc32)cc1OC", "Potency": "inconclusive: 9.2 µM [cytotoxic, partial curve, poor fit]"}
{"smiles": "CN(C(=O)CN1C(=O)c2ccc([N+](=O)[O-])cc2C1=O)C1CCCCC1", "Potency": "inconclusive: 29.1 µM [rising, single point]"}
{"smiles": "Cc1ccc2oc(-c3ccc(C)c(NC(=O)c4ccc(N5CCC(C)CC5)c([N+](=O)[O-])c4)c3)nc2c1", "Potency": "inconclusive: 32.6 µM [rising, single point]"}
{"smiles": "Cc1cccc(NC(=O)c2cc3c(=O)n4cccc(C)c4nc3s2)c1C", "Potency": "inconclusive: 2.59 µM [cytotoxic, full curve]"}
{"smiles": "O=C(NC(Cc1c[nH]c2ccccc12)C(=O)Nc1ccc(F)cc1)c1cccs1", "note": "(stereo not drawn)", "Potency": "inconclusive: 20.6 µM [cytotoxic, partial curve, poor fit]"}
{"smiles": "O=C1c2ccccc2NC(c2ccccn2)N1c1ccccc1F", "note": "(stereo not drawn)", "Potency": "inconclusive: 18.4 µM [cytotoxic, partial curve]"}
{"smiles": "CCn1c(/N=C/c2ccccc2NS(=O)(=O)c2ccc(C)cc2)nc2ccccc21", "activity change, negative = cytotoxicity": "inactive: -20.1%"}
{"smiles": "CN1CCCC(OC(=O)c2cc(F)c(F)c(F)c2F)C1", "note": "(stereo not drawn)", "Potency": "inconclusive: 29.1 µM [rising, single point]"}
{"smiles": "O=c1[nH]c(=S)[nH]c2c1C(c1ccccc1)OC(C1CCCCC1)C2", "note": "(stereo not drawn)", "Potency": "inconclusive: 29.1 µM [rising, single point]"}
{"smiles": "Cc1cccc(NC(=O)c2ccc3snnc3c2)c1C", "Potency": "inconclusive: 29.1 µM [cytotoxic, single point]"}
{"smiles": "O=C(Nc1cc(C(F)(F)F)ccc1-n1cncn1)c1ccc(Br)cc1", "Potency": "inconclusive: 16.4 µM [cytotoxic, single point]"}
